## Library screen at single concentrations

Each number is a percent effect as filed. The controls that fix the scale are not given in the record; negative values are as filed. This is an unselected part of the compounds tested. Two or more numbers in one place are separate tests of the same structure; such repeats can differ widely.

A: 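Growth of Mycobacterium tuberculosis over 4 days (cholesterol / DPPC medium with tyloxapol); the read-out is not stated. Concentration: 50 µM. The record gives no direction; compounds that gave an IC50 in retests scored well above the rest, so higher reads as more growth inhibition. Size under these conditions: about 69,000 compounds, about 370 of them at 50% or above in at least one test.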
B: 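Phenotypic screen: M. tuberculosis growth, glucose 7H9 medium, 3 days; the read-out is not stated. Compounds at 50 µM. The record gives no direction; compounds that gave an IC50 in retests scored well above the rest, so higher reads as more growth inhibition. Size under these conditions: about 69,000 compounds, about 760 of them at 50% or above in at least one test.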

{"smiles": "Cc1cc(NC(=O)C(C)N2CCN(c3nc(C)cs3)CC2)on1", "stereo": "stereo not shown", "A": 22.8, "B": 27.34}
{"smiles": "Cc1cccc(CN(C)Cc2nc3c(cnn3C)c(=O)[nH]2)c1", "A": -14.08, "B": -14.22}
{"smiles": "COc1ccc(S(=O)(=O)NC(=O)COC2CCCC2)cc1", "A": -13.57, "B": 8.202}
{"smiles": "CCN(CC(=O)NC)C(=O)c1csc(Cc2ccccc2)n1", "A": 17.72, "B": "-3.372 & 6.519"}
{"smiles": "COC(=O)c1cccc(OCCn2nc(-c3cccs3)oc2=O)c1", "A": 32.75, "B": 32.76}
{"smiles": "Cc1ccc(C(NC(=O)CN2CCc3c(ncn3C)C2)C2CC2)cc1", "stereo": "stereo not shown", "A": -22.97, "B": "-20.14 & 1.324"}
{"smiles": "CCn1cc(CN(C)S(=O)(=O)c2cnn(C)c2)cn1", "A": 29, "B": -23.15}
{"smiles": "CCNc1nc(N(C)C)nc(-n2cnc(SC)n2)n1", "A": -5.816, "B": "0.06567 & -10.28"}
{"smiles": "Cn1cnc2c1CCN(CCOc1ccc3c(c1)CCC(=O)N3)C2", "A": -5.239, "B": -24.26}
{"smiles": "COCCCN1CC2(CCN(C(=O)c3ccc(=O)n(C)c3)CC2)CC1=O", "A": 7.025, "B": -7.261}
{"smiles": "CC(C)c1noc(CCCC(=O)NC2CCS(=O)(=O)C2)n1", "stereo": "stereo not shown", "A": -0.927, "B": -13.51}
{"smiles": "Cc1ccc(CCC(=O)N2CCn3c(nnc3C(C)C)C2)cc1Cl", "A": -4.434, "B": -19.07}
{"smiles": "CC1CN(C(=O)c2nccnc2N)c2ccc(F)cc2O1", "stereo": "stereo not shown", "A": -1.65, "B": 6.66}
{"smiles": "CC1CN(Cc2ccccc2)CCCN1CCCS(C)(=O)=O", "stereo": "stereo not shown", "A": 22.23, "B": 37.29}
{"smiles": "O=C(O)C(F)(F)F.c1cnc(N2CCOCC3(CN(Cc4nccs4)CCO3)C2)nc1", "stereo": "stereo not shown", "A": "-30.64 & -9.211", "B": "24.73 & -0.5229"}
{"smiles": "COc1cccc(CN2CCOC(Cn3nc(C)cc3C)C2)c1", "stereo": "stereo not shown", "A": "-6.692 & -18.74", "B": 0.8763}
{"smiles": "O=C(CO)N1CCN(C(=O)c2coc3ccccc23)CC1", "A": 2.506, "B": 14.14}
{"smiles": "Cc1ccsc1CNC(=O)N(C)Cc1cnn(C)c1", "A": -1.287, "B": 6.949}
{"smiles": "Cc1nc(CN(Cc2ccccc2F)C2CCC2)no1", "A": "-3.03 & -2.33", "B": 21.61}
{"smiles": "N#Cc1ccc(CN2CCCC(Cn3cncn3)C2)c(F)c1", "stereo": "stereo not shown", "A": -19.05, "B": -49.36}
{"smiles": "O=C(Cc1cccs1)NC1(C(=O)NCC2CC2)CCCC1", "A": -16.79, "B": 4.035}
{"smiles": "Cn1ncc2c(=O)[nH]c(CN3CCCC3Cc3ccc(F)cc3)nc21", "stereo": "stereo not shown", "A": -13.8, "B": -38.23}
{"smiles": "Cc1nc2c(c(C)c1CC(=O)NC(C)c1ccccc1)c(=O)[nH]n2C", "stereo": "stereo not shown", "A": -27.55, "B": "-0.3102 & -3.612"}
{"smiles": "O=C(NCCc1cc2nc(-c3ccncc3)ccn2n1)C1CCOCC1", "A": "5.746 & -2.091", "B": -4.436}
{"smiles": "CC(C)(C)CCN1CCCC(Cn2cc(CCO)nn2)C1", "stereo": "stereo not shown", "A": -15.19, "B": -8.63}
{"smiles": "Cc1ncc(CN2CCCN(Cc3noc(C4CC4)n3)CC2)s1", "A": -10.53, "B": "-48.62 & -2.182"}
{"smiles": "CC(C)(C)C(=O)NCC(=O)NC1CC(c2cccc(Cl)c2)C1", "stereo": "stereo not shown", "A": -10.03, "B": 31.15}
{"smiles": "CCC(C)N(Cc1sccc1C)C(=O)c1cc(N)ccn1", "stereo": "stereo not shown", "A": 20.45, "B": "0.8393 & -2.121"}
{"smiles": "CCn1cc(C(=O)N2CCCN(c3cccnn3)CC2)c2ccccc21", "A": -17.41, "B": 20.42}
{"smiles": "CCN(C(=O)c1cccc2c1OCO2)c1ccc(Br)cn1", "A": "2.331 & -2.311", "B": "13.91 & 9.219"}
{"smiles": "Cc1ncsc1C(=O)NCCOc1ncc(Cl)cc1Cl", "A": "9.896 & 7.176", "B": 9.89}

For reference, 2 entries once more:

| SMILES | A | B |
|---|---|---|
| `CC(C)c1noc(CCCC(=O)NC2CCS(=O)(=O)C2)n1` (stereo not shown) | -0.927 | -13.51 |
| `CCN(C(=O)c1cccc2c1OCO2)c1ccc(Br)cn1` | 2.331 & -2.311 | 13.91 & 9.219 |

Data taken from ChEMBL document CHEMBL3988442, “University of Dundee, Small-Polar-MMV Screening Library” (2021).